Data as given in PubChem BioAssay AID1259424 (University of Nebraska Medical Center, 2018)

Purpose: 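Seek colon cancer survival genes behaving like KSR1, using a six-gene signature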 (primary screen)
System: human HCT116 colon cancer cells
Knock-down reagent: siRNA pool against human genes, 50 nM
Read-out: 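Six signature mRNAs by branched-DNA multiplex assay, scaled to two housekeeping genes and non-targeting median, log2; matched to mean KSR1 knockdown profile by Pearson correlation and euclidean distance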
Direction: mean correlation with KSR1 profile: higher = expression change more like KSR1 knockdown
Shown is an unselected part of about 14,000 reagents tested. 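Higher correlation or smaller distance means closer resemblance to KSR1 loss; control wells, including KSR1 knockdowns, recur on many plates.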 Not all columns of the deposit are shown. The record does not give: the time to read-out.

| Target gene | mean correlation with KSR1 profile |
| --- | --- |
| DNMBP | -0.611 |
| TAF7L | -0.16 |
| FRYL | -0.615 |
| MMAB | -0.589 |
| STEAP4 | -0.0472 |
| GDAP1 | -0.0591 |
| RPS29 | -0.49 |
| PAK6 | -0.203 |
| DEPTOR | -0.305 |
| STC1 | -0.558 |
| WDR41 | -0.586 |

Not a retest: 2 of the entries above.
| Target gene | mean correlation with KSR1 profile |
| --- | --- |
| RPS29 | -0.49 |
| PAK6 | -0.203 |

The list goes on:
| Target gene | mean correlation with KSR1 profile |
| --- | --- |
| SNRPB | -0.585 |
| ZNF287 | -0.266 |
| RORB | -0.708 |
| MRPL1 | -0.0769 |
| CEP83 | -0.724 |
| GSTT4 | 0.00347 |
| THBD | 0.0475 |
| BORCS8-MEF2B | 0.576 |
| UBE2R2 | 0.088 |
